The exact form of at least one protein or probe is not confirmed. Weaker means in comparison with the reference protein, sequence or condition of that experiment. At least one verdict was read from the data and is not stated in words by the source.
Tested on: INTS6 + INTS3 (SOSS1 subunit) + hSSB1 (SOSS1 subunit) + INIP (SOSS1 subunit)
Experiment: EMSA
Conditions: 5 mM Mg2+, pattern similar to INTS6 alone; EMSA: 25 mM Tris-Cl pH 7.5, 1 mM DTT, 5 mM MgCl2, 100 mM NaCl, 20 min at 37 C; protein 22-167 nM, nucleic acid 10 nM; 7.5% native PAGE, 0.5x TBE, 4 C; recombinant protein; label: 5'-Cy3; single-stranded DNA

GTGCCTTGCTAGGACATCTTT [21-mer ssDNA (pR630)]
binding result: binds more weakly

From article PMC11602137
